doi:10.1101/2022.09.09.507138
Where two headings read alike, the source gives them in different places. No constants are given. Whether binding was seen depends on the method and setting. Binding seen in cells or lysates may run through a third protein. Some results given as binding are weak or reduced against the parent protein; the word gives no strength. For part of these data: Tags and fused reporters may be left off the sequences shown. Values belong to the molecule of their own block, whether it stands above or below them.

Protein sequences, listed by entry. Tags and fused reporters are not part of them.
UniProt O35885: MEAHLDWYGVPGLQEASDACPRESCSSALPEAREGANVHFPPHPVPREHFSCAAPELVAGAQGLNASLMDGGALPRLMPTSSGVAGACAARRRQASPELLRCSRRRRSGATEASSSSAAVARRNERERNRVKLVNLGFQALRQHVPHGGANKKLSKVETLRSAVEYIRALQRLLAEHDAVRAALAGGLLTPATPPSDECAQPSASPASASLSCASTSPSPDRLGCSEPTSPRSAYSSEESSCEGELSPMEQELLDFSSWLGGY
UniProt Q99929: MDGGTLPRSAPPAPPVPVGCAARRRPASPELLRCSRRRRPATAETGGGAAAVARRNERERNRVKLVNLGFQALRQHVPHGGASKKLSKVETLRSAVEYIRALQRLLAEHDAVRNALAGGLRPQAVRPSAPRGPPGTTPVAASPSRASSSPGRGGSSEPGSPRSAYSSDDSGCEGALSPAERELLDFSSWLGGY

Assays:
[1] = molecular target: T1, endogenous HDAC7 (SW480 cells) (human (endogenous in SW480)) (UniProt Q8WUI4); experiment: proximity ligation
T1 sequence: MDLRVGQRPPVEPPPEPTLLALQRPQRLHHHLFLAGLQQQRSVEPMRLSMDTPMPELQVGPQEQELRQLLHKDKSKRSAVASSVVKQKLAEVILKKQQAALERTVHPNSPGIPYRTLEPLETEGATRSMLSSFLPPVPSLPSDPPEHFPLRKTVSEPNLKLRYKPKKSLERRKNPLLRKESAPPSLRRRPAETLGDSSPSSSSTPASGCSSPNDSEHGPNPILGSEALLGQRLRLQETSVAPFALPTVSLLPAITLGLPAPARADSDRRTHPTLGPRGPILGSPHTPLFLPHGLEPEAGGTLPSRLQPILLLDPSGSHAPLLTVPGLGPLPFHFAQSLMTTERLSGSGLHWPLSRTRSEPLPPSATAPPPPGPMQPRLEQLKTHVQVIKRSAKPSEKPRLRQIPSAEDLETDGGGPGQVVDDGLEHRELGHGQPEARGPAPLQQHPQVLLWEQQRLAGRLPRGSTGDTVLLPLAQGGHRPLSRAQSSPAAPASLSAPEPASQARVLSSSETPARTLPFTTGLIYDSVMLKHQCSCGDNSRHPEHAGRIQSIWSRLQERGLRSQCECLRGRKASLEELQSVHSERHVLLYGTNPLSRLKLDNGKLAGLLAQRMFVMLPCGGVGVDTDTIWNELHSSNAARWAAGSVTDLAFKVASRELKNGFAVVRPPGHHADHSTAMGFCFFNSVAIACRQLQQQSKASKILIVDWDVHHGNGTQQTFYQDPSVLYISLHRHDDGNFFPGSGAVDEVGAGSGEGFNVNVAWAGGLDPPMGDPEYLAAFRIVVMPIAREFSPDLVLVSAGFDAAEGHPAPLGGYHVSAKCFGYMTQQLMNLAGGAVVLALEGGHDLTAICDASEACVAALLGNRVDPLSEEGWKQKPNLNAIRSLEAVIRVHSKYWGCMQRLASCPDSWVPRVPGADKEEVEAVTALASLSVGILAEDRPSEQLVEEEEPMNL

[2] = molecular target: T2, endogenous mSin3a (SW480 cells) (human (endogenous in SW480)) (UniProt Q96ST3); experiment: proximity ligation
T2 sequence: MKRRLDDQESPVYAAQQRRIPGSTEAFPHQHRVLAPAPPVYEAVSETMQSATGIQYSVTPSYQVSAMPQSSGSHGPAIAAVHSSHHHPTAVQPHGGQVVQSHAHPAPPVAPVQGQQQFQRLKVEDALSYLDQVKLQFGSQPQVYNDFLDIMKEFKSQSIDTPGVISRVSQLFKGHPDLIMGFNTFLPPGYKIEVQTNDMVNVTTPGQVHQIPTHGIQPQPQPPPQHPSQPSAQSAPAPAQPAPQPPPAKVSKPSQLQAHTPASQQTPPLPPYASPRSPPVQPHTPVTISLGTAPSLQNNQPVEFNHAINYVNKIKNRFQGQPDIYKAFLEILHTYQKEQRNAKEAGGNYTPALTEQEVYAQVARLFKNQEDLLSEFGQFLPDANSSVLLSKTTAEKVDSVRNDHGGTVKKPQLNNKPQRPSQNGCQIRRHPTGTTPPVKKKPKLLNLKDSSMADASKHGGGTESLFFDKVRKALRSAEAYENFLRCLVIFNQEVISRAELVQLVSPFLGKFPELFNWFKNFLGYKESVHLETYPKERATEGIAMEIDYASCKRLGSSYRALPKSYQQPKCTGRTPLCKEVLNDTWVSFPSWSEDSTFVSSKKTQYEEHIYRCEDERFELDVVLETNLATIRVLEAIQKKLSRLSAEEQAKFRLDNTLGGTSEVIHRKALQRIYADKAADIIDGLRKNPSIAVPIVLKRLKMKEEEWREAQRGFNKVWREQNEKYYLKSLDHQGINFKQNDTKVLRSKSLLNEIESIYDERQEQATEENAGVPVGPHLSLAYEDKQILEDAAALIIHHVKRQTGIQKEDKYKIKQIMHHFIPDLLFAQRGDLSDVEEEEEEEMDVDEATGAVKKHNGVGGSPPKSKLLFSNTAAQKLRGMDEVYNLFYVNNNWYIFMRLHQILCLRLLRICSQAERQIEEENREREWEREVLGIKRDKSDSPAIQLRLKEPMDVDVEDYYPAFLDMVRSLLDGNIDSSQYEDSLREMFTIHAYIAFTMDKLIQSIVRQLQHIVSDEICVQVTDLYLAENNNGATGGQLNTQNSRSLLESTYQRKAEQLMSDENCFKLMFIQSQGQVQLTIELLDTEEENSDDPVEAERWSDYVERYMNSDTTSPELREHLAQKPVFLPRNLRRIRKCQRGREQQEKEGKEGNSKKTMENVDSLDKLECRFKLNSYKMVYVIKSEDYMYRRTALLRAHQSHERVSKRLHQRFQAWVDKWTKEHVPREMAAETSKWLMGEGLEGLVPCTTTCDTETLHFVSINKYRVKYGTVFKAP

HDAC7-Flag [3] = molecular target: T3, HDAC7-Flag (UniProt Q8WUI4); experiment: co-IP
T3 sequence: T1 sequence

Myc-mSin3a [4] = molecular target: T4, Myc-mSin3a (UniProt Q60520); experiment: co-IP
T4 sequence: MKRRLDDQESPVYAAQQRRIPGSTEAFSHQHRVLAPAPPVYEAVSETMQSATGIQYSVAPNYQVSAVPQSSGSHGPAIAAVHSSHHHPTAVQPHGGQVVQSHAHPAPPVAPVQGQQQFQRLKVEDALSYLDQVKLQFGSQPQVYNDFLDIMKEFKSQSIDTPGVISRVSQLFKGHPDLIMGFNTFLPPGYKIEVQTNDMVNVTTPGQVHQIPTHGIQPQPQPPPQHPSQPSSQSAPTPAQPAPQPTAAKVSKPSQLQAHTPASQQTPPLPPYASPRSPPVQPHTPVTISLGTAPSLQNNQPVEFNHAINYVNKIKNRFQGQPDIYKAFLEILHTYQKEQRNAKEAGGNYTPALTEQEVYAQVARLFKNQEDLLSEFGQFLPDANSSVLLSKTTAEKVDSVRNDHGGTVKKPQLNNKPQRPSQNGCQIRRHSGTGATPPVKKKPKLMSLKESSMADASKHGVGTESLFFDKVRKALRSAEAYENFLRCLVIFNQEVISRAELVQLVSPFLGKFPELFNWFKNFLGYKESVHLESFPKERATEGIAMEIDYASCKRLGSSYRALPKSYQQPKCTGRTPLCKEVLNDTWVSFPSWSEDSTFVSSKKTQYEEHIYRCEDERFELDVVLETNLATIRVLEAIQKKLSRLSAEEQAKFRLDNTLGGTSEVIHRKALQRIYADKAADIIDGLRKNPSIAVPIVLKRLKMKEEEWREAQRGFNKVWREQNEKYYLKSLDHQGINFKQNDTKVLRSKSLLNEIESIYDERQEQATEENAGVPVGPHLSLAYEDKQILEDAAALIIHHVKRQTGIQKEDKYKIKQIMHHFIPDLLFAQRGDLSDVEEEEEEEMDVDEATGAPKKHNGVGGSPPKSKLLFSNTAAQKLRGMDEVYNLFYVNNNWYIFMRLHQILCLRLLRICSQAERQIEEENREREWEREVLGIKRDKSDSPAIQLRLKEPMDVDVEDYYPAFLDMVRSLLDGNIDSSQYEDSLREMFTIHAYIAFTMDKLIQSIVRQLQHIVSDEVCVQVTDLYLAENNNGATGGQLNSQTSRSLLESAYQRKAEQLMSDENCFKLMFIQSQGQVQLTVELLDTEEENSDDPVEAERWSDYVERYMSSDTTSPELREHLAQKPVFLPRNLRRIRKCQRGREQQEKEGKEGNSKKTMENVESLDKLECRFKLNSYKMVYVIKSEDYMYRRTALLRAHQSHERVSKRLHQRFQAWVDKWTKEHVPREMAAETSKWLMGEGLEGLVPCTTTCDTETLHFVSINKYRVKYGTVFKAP

[5] = molecular target: murine Ascl2 fused to turbo-GFP (mouse) (UniProt O35885); experiment: pull-down
[6] = molecular target: murine Ascl2 fused to turbo-GFP (mouse) (UniProt O35885); experiment: co-IP
HDAC7-Flag [7] = molecular target: T3, HDAC7-Flag; experiment: co-IP; remark: listed apart in the source
Myc-mSin3a [8] = molecular target: T4, Myc-mSin3a; experiment: co-IP; remark: listed apart in the source
[9] = molecular target: T2, endogenous mSin3a (SW480 cells) (human (endogenous in SW480)); experiment: co-IP

binding [1]: binds
binding [2]: binds
Molecule: endogenous Ascl2 (SW480 cells) (from UniProt Q99929 1-193)

binding (HDAC7-Flag [3]): binds
binding (Myc-mSin3a [4]): binds
Molecule: murine Ascl2 fused to turbo-GFP (from UniProt O35885 1-263)

binding [5]: binds
binding [6]: binds
B1: Myc-tagged p57^Kip2 (protein, UniProt P49919 1-348)
chain: MGMSDVYLRSRTAMERLASSDTFPVIARSSACRSLFGPVDHEELGRELRMRLAELNAEDQNRWDFNFQQDVPLRGPGRLQWMEVDSESVPAFYRETVQVGRCRLQLGPRPPPVAVAVIPRSGPPAGEAPDGLEEAPEQPPSAPASAVVAEPTPPATPAPASDLTSDPIPEVTLVATSDPTPDPIPDANPDVATRDGEEQVPEQVSEQGEESGAEPGDELGTEPVSEQGEEQGAEPVEEKDEEPEEEQGAEPVEEQGAEPVEEQNGEPVEEQDENQEQRGQELKDQPLSGIPGRPAPGTAAANANDFFAKRKRTAQENKASNDVPPGCPSPNVAPGVGAVEQTPRKRLR

binding (HDAC7-Flag [7]): binds
binding (Myc-mSin3a [8]): binds
B2: Flag-p57 (protein, UniProt P49919 1-348)
chain: B1 chain

binding [9]: binds
B3: endogenous HDAC7 (SW480 cells) (enzyme, UniProt Q8WUI4 1-952)
chain: T1 sequence
